Assay results from the supplement of paper PMC11732987, “Enantioselective OTUD7B fragment discovery through chemoproteomics screening and high-throughput optimisation” (Communications Chemistry, 2025).
Some of the results follow. The data scatter; read single values as rough.

By UniProt entry, the sequences of proteins in these tests, tags left out. Where a name states a change or a piece, a line headed by the entry shows the natural chain unless it says otherwise.
UniProt Q96QE3: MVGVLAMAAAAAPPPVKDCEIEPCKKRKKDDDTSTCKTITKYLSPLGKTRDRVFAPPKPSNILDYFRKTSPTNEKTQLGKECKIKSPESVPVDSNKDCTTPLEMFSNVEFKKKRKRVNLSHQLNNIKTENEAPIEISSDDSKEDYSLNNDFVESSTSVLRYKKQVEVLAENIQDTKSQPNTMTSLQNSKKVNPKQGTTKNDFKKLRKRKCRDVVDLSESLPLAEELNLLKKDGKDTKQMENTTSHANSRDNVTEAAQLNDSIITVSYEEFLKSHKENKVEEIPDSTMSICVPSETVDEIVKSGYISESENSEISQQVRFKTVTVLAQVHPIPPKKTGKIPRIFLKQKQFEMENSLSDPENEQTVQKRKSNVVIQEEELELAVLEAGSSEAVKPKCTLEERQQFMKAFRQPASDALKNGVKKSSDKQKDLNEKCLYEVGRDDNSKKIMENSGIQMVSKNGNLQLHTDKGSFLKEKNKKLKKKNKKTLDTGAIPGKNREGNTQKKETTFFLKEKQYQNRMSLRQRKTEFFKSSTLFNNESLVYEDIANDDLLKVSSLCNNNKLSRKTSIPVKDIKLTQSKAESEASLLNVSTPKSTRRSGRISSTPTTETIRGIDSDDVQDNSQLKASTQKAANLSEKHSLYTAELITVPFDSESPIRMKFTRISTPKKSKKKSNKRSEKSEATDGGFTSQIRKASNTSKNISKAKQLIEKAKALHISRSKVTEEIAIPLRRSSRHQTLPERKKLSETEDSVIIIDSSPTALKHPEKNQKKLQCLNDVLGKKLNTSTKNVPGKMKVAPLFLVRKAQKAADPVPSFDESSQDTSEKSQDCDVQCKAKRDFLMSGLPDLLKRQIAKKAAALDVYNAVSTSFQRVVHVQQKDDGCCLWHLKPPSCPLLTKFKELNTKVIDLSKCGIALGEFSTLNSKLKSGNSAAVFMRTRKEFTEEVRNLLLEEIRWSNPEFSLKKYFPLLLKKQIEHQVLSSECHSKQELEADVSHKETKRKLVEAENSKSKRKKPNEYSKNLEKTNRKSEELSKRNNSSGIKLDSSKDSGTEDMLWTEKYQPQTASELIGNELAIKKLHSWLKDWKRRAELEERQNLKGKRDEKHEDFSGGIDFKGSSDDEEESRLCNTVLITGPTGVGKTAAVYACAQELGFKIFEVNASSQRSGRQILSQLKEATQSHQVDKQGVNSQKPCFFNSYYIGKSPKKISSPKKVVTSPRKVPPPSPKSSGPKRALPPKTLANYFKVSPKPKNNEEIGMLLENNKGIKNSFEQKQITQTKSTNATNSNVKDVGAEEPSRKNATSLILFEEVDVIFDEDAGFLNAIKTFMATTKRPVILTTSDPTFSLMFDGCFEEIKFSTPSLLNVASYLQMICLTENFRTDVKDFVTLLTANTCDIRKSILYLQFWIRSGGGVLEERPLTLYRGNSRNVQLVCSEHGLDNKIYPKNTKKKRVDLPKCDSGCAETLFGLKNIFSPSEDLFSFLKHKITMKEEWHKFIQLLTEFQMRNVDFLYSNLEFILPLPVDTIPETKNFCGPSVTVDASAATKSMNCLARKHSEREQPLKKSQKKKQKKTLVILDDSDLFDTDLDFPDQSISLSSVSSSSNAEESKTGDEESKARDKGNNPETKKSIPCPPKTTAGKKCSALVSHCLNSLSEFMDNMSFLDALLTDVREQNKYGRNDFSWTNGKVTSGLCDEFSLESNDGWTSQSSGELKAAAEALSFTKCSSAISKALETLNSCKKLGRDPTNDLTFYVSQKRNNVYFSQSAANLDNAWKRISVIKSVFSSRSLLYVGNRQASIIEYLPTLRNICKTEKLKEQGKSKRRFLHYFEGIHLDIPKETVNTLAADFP
UniProt Q9UHQ4: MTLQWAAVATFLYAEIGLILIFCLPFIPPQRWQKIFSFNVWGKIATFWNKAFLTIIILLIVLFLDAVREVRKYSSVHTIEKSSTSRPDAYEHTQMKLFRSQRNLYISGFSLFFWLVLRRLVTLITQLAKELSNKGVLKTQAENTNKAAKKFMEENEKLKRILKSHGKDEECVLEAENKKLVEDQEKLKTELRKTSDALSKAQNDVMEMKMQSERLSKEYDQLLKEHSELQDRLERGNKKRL
UniProt Q8TDH9: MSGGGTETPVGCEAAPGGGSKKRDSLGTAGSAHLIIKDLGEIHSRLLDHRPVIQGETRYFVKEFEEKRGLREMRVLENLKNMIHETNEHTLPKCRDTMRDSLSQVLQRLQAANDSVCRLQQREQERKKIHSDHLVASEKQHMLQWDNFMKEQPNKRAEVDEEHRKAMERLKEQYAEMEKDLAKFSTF
UniProt Q8WY36: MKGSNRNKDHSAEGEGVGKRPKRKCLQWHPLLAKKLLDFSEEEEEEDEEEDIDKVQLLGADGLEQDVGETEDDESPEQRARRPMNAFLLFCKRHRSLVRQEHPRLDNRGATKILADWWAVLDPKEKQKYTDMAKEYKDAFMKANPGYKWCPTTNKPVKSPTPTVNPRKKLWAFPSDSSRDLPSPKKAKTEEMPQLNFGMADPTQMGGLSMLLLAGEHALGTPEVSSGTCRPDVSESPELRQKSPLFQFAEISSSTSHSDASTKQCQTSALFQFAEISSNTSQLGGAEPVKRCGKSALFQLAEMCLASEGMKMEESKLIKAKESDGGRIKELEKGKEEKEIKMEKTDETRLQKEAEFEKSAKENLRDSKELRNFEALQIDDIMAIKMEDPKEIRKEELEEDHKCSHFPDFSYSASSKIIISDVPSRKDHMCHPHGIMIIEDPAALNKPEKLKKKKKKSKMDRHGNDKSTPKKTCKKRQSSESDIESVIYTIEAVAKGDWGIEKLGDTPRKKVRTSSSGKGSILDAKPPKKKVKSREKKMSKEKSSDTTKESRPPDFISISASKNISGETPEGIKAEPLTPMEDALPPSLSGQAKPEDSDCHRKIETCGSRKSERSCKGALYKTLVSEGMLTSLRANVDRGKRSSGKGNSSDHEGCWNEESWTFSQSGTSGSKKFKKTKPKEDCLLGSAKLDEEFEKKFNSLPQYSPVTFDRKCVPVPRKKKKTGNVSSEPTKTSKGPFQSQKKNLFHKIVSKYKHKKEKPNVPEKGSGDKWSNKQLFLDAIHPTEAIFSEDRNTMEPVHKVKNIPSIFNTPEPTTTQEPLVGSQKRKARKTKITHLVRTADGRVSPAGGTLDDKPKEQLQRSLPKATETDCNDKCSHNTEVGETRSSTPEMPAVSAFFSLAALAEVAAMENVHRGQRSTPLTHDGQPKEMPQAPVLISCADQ
UniProt Q96GD4, whole entry, looked up: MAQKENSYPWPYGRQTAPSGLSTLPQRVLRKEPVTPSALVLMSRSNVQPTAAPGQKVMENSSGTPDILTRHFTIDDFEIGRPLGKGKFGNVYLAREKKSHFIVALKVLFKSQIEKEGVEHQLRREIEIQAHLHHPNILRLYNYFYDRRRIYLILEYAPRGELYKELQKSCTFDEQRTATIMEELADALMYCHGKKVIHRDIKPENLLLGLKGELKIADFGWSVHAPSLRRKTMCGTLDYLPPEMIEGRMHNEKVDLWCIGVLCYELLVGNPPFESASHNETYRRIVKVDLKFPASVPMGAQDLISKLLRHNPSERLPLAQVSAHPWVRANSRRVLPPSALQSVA
UniProt A6H8Y1: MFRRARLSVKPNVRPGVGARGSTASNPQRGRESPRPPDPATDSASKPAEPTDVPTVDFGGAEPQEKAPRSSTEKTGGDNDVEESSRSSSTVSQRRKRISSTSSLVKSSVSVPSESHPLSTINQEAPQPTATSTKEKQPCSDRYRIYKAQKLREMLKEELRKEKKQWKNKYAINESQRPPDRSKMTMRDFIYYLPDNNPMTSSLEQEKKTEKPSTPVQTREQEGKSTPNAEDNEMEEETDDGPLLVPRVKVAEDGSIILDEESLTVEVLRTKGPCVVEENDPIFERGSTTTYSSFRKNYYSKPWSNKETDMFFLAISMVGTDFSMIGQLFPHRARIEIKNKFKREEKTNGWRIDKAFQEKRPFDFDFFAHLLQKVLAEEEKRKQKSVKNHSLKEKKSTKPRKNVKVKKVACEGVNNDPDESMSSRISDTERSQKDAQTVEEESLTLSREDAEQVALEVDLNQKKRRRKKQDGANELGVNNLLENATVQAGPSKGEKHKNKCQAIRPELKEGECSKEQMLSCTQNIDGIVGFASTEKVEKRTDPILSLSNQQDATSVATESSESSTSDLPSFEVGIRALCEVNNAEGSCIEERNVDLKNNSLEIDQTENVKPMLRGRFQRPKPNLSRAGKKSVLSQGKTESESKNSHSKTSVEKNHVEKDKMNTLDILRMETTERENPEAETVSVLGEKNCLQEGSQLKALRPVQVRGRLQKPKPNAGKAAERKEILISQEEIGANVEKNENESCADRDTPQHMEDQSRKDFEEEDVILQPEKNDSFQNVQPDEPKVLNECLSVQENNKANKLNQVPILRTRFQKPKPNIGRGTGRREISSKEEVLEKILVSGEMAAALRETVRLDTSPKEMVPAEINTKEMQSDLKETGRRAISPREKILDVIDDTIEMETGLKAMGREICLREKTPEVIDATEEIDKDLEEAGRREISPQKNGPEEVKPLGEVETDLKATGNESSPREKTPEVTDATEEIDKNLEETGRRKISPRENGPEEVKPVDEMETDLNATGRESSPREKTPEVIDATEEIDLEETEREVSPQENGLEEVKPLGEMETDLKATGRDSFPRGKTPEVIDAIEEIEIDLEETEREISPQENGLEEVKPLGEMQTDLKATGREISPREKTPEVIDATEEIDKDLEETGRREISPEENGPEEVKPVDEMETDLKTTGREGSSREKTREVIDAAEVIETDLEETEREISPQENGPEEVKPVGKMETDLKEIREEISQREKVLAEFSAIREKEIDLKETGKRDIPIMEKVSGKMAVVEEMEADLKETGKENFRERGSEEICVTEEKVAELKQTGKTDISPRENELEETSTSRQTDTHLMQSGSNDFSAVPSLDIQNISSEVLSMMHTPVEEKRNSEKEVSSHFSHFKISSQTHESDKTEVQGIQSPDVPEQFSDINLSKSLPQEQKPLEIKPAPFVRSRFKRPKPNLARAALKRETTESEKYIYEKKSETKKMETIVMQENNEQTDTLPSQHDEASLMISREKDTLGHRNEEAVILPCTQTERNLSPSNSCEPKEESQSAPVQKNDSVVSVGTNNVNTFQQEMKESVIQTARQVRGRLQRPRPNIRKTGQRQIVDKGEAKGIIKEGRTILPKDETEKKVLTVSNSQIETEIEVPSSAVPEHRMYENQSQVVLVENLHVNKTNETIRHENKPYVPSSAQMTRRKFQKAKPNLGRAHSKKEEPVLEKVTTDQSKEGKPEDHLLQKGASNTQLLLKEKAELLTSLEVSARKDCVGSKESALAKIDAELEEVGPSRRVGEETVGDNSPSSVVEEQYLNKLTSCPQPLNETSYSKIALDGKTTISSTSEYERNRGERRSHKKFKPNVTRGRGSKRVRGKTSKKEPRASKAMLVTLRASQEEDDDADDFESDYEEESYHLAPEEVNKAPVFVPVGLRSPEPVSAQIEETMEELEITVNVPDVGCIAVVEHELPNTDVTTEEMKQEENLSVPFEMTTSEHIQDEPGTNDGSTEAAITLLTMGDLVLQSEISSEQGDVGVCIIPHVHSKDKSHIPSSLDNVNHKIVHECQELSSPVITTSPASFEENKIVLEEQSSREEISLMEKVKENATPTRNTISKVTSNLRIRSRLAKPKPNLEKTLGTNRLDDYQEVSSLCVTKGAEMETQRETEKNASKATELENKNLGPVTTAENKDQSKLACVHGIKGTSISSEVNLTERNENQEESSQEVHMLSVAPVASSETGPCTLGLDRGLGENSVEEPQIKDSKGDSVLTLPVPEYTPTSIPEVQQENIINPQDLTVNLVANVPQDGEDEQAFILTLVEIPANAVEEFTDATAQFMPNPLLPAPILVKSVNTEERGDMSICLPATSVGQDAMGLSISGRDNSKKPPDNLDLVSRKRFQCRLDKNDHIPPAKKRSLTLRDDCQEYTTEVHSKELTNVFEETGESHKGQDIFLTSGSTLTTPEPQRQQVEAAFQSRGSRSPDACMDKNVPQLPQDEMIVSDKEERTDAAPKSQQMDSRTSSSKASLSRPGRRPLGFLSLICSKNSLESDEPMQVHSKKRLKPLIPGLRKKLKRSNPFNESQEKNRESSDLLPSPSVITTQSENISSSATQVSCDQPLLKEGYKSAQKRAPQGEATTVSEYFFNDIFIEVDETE

Experiments:
[1] = compound: ClCC(=O)N[C@@H]1CCCc2ccccc12; experiment: log2 mean competition ratio of IA-DTB cysteine labelling (DMSO/compound) (log2 ratio); higher = stronger cysteine engagement by compound; settings: treatment time: 4 h, cell line lysate: HEK293T
Protocol: (§1)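 IA-DTB competitive cysteine chemoproteomics in HEK293T RIPA lysate. Lysates were treated with compound 29 or 30 at 50 or 200 µM for 4 h, then IA-DTB (500 µM, 1 h), trypsin-digested, NeutrAvidin-enriched and analysed by diaPASEF. Competition ratio = intensity DMSO / intensity compound (n=4 treated, n=64 DMSO); binding: mean log2 CR ≥ 1 and p ≤ 0.05 plus QC filters. Target is the cysteine site.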

[2] = compound: ClCC(=O)N[C@H]1CCCc2ccccc12; experiment: as above; settings: treatment time: 4 h, cell line lysate: HEK293T
Protocol: as §1

ATAD5 C556 (UniProt Q96QE3)
log2 mean competition ratio ([1]; 50 µM): -0.0469 | log2 mean competition ratio ([1]; 200 µM): 0.219 | log2 mean competition ratio ([2]; 50 µM): 0.0134 | log2 mean competition ratio ([2]; 200 µM): 0.165

BCAP29 C171 (UniProt Q9UHQ4)
log2 mean competition ratio ([1]; 50 µM): -0.118 | log2 mean competition ratio ([1]; 200 µM): -0.00642 | log2 mean competition ratio ([2]; 50 µM): -0.169 | log2 mean competition ratio ([2]; 200 µM): -0.0966

BLOC1S5 C117 (UniProt Q8TDH9)
log2 mean competition ratio ([1]; 50 µM): -0.0785 | log2 mean competition ratio ([1]; 200 µM): 0.249 | log2 mean competition ratio ([2]; 50 µM): -0.00724 | log2 mean competition ratio ([2]; 200 µM): 0.311

BBX C606 (UniProt Q8WY36)
log2 mean competition ratio ([1]; 50 µM): 0.153 | log2 mean competition ratio ([1]; 200 µM): 0.34 | log2 mean competition ratio ([2]; 50 µM): 0.0534 | log2 mean competition ratio ([2]; 200 µM): -0.0245

ATAD5 C1734 (UniProt Q96QE3)
log2 mean competition ratio ([1]; 50 µM): 0.218 | log2 mean competition ratio ([1]; 200 µM): -0.00747 | log2 mean competition ratio ([2]; 50 µM): 0.42 | log2 mean competition ratio ([2]; 200 µM): 0.235

AURKB C170 (UniProt Q96GD4)
log2 mean competition ratio ([1]; 50 µM): -0.0712 | log2 mean competition ratio ([1]; 200 µM): 0.192 | log2 mean competition ratio ([2]; 50 µM): -0.154 | log2 mean competition ratio ([2]; 200 µM): 0.275

BDP1 C2394 (UniProt A6H8Y1)
log2 mean competition ratio ([1]; 50 µM): -0.274 | log2 mean competition ratio ([1]; 200 µM): -0.0681 | log2 mean competition ratio ([2]; 50 µM): -0.184 | log2 mean competition ratio ([2]; 200 µM): -0.0836
